Laboratory results taken from patent publication US6562464B1, “Utilization of phenylglyoxalic acid esters as photoinitiators” (BASF Aktiengesellschaft, priority 1999, dated 2003).

Assays:
[1] = Pencil hardness of UV-cured film; conditions: 4 parts photoinitiator in 96 parts Laromer LR 8987; film on glass, 50 μm or 100 μm, cured at 10 m/min under air
[2] = Erichsen indentation of UV-cured film, DIN EN ISO 1520; conditions: 4 parts photoinitiator in 96 parts Laromer LR 8987; film on glass, 50 μm or 100 μm, cured at 10 m/min under air

SMILES: O=C(OC1CCC(OC(=O)C(=O)c2ccccc2)CC1)C(=O)c1ccccc1 (centres unmarked) [1,4-cyclohexanediol di(phenylglyoxylate)]
- Pencil hardness [1]: 2H
- Erichsen indentation in accordance with DIN EN ISO 1520 [2]: about 0.6 mm
